PubChem BioAssay AID504764, Drosophila RNAi Screening Center, 2011
Purpose: 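Genes whose knock-down alters Notch-dependent transcription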 (primary screen). System: Drosophila Kc167 cells. Knock-down reagent: long dsRNA against Drosophila genes. Duration: about 5 days (4 days dsRNA, then 24 h after transfection). Conditions: transfection of constitutively active membrane-tethered Notch lacking the extracellular domain, read 24 h later. Detection: 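Firefly luciferase from an E(spl)m3 reporter with active Notch, plus control-promoter and uninduced reporter wells for normalisation; unnormalised counts, duplicate wells a and b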. Reading the numbers: induced reporter light, run 1, well a and induced reporter light, run 1, well b: higher = more light from the Notch target reporter with active Notch; control promoter light, run 1, well a and control promoter light, run 1, well b: higher = more light from the viral control promoter (cell number, transfection, viability); uninduced reporter light, run 1, well a: higher = more light from the Notch target reporter without active Notch. Call rule: 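Wells with low control signal or poorly matching duplicates excluded; duplicates averaged; per source plate, z beyond ±2 for induced/control log2 ratio or beyond ±1.8 for induced/uninduced marks a hit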. Calls: active = modifier hit (raised or lowered Notch signal); inactive = not a hit.
The screen tested about 22,000 reagents; shown is a random part of those with a known target gene and a result. In the full data, 403 (1.9%) were called active. 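Unnormalised raw counts per well; ratio z-scores behind the hit calls and whether each hit raises or lowers signal are not deposited.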 The record does not give: the amount of reagent.

For ppk25 [DRSC04973], the values are induced reporter light, run 1, well a = 2.13e5; induced reporter light, run 1, well b = 1.89e5; control promoter light, run 1, well a = 2.25e5; control promoter light, run 1, well b = 2.17e5; uninduced reporter light, run 1, well a = 15420; inactive.
Against Bgb [DRSC08148], the values are induced reporter light, run 1, well a = 1.07e5; induced reporter light, run 1, well b = 1.26e5; control promoter light, run 1, well a = 2.22e5; control promoter light, run 1, well b = 1.96e5; uninduced reporter light, run 1, well a = 8428; inactive.
With knock-down of CG8064 [DRSC16373], the record shows induced reporter light, run 1, well a = 10605; induced reporter light, run 1, well b = 7378; control promoter light, run 1, well a = 8410; control promoter light, run 1, well b = 7985; uninduced reporter light, run 1, well a = 842; inactive.
For Oamb [DRSC13433] the deposit lists induced reporter light, run 1, well a = 59565; induced reporter light, run 1, well b = 55745; control promoter light, run 1, well a = 85700; control promoter light, run 1, well b = 63535; uninduced reporter light, run 1, well a = 8745; inactive.
For Oamb [DRSC15120], the entry reads induced reporter light, run 1, well a = 1.49e5; induced reporter light, run 1, well b = 1.38e5; control promoter light, run 1, well a = 1.84e5; control promoter light, run 1, well b = 1.54e5; uninduced reporter light, run 1, well a = 11165; inactive.
Oamb [DRSC16763] showed induced reporter light, run 1, well a = 1.67e5; induced reporter light, run 1, well b = 1.47e5; control promoter light, run 1, well a = 1.85e5; control promoter light, run 1, well b = 1.91e5; uninduced reporter light, run 1, well a = 10630; inactive.
With knock-down of smp-30 [DRSC17059], the record shows induced reporter light, run 1, well a = 2.15e5; induced reporter light, run 1, well b = 2.15e5; control promoter light, run 1, well a = 2.30e5; control promoter light, run 1, well b = 1.91e5; uninduced reporter light, run 1, well a = 16300; inactive.
With knock-down of CG14561 [DRSC11722], the record shows induced reporter light, run 1, well a = 1.57e5; induced reporter light, run 1, well b = 1.53e5; control promoter light, run 1, well a = 1.34e5; control promoter light, run 1, well b = 1.39e5; uninduced reporter light, run 1, well a = 9900; inactive.

Part of the list above, reformatted:
smp-30 [DRSC17059]
- induced reporter light, run 1, well a: 2.15e5
- induced reporter light, run 1, well b: 2.15e5
- control promoter light, run 1, well a: 2.30e5
- control promoter light, run 1, well b: 1.91e5
- uninduced reporter light, run 1, well a: 16300
- activity call: inactive

CG14561 [DRSC11722]
- induced reporter light, run 1, well a: 1.57e5
- induced reporter light, run 1, well b: 1.53e5
- control promoter light, run 1, well a: 1.34e5
- control promoter light, run 1, well b: 1.39e5
- uninduced reporter light, run 1, well a: 9900
- activity call: inactive

Next results follow:
For CG15631 [DRSC00466] the deposit lists induced reporter light, run 1, well a = 1.58e5; induced reporter light, run 1, well b = 1.19e5; control promoter light, run 1, well a = 1.54e5; control promoter light, run 1, well b = 1.31e5; uninduced reporter light, run 1, well a = 9285; inactive.
stl [DRSC04396] showed induced reporter light, run 1, well a = 2.01e5; induced reporter light, run 1, well b = 1.67e5; control promoter light, run 1, well a = 1.49e5; control promoter light, run 1, well b = 1.44e5; uninduced reporter light, run 1, well a = 11755; inactive.
Naxe [DRSC18251] gave induced reporter light, run 1, well a = 1.32e5; induced reporter light, run 1, well b = 1.54e5; control promoter light, run 1, well a = 2.31e5; control promoter light, run 1, well b = 1.94e5; uninduced reporter light, run 1, well a = 10510; inactive.
Against Mtch [DRSC08679], the entry reads induced reporter light, run 1, well a = 63945; induced reporter light, run 1, well b = 86790; control promoter light, run 1, well a = 1.44e5; control promoter light, run 1, well b = 1.75e5; uninduced reporter light, run 1, well a = 6125; inactive.
Depletion of CG4393 [DRSC15573] gave: induced reporter light, run 1, well a = 1.73e5; induced reporter light, run 1, well b = 1.83e5; control promoter light, run 1, well a = 2.26e5; control promoter light, run 1, well b = 2.11e5; uninduced reporter light, run 1, well a = 16005; inactive.
Depletion of Vhl [DRSC07716] resulted in: induced reporter light, run 1, well a = 1.01e5; induced reporter light, run 1, well b = 1.08e5; control promoter light, run 1, well a = 1.60e5; control promoter light, run 1, well b = 1.55e5; uninduced reporter light, run 1, well a = 7870; inactive.
Depletion of BicD [DRSC02006] resulted in: induced reporter light, run 1, well a = 1.23e5; induced reporter light, run 1, well b = 1.09e5; control promoter light, run 1, well a = 1.11e5; control promoter light, run 1, well b = 1.09e5; uninduced reporter light, run 1, well a = 9115; inactive.
With knock-down of Nak [DRSC03379], the record shows induced reporter light, run 1, well a = 1.99e5; induced reporter light, run 1, well b = 1.87e5; control promoter light, run 1, well a = 1.82e5; control promoter light, run 1, well b = 1.94e5; uninduced reporter light, run 1, well a = 18870; inactive.
After knock-down of CG17834 [DRSC02637], the record shows induced reporter light, run 1, well a = 2.27e5; induced reporter light, run 1, well b = 2.84e5; control promoter light, run 1, well a = 1.92e5; control promoter light, run 1, well b = 2.12e5; uninduced reporter light, run 1, well a = 15595; inactive.
Or83c [DRSC12359] showed induced reporter light, run 1, well a = 1.09e5; induced reporter light, run 1, well b = 1.16e5; control promoter light, run 1, well a = 1.47e5; control promoter light, run 1, well b = 1.06e5; uninduced reporter light, run 1, well a = 15470; inactive.
